Test results published in PubChem BioAssay AID1487 (National Center for Advancing Translational Sciences (NCATS), 2009).
The list shows a part of the results. These are further read-outs of the screen, such as a control signal, another cell line or another target. No call is given for them. Most of these compounds were active or inconclusive in the main read-out, so they are no random draw. Words in brackets tell the shape of the fitted curve; partial curves, single points and poor fits give uncertain potencies.

Assay: qHTS Assay for Modulators of Lamin A Splicing
Details: HeLa LMNA splicing GFP/RFP minigene ratio, 48 h
How it was run: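 S3 HeLa stable clones carrying a lamin A-EGFP splicing minigene plus DsRed2 were seeded at 600 cells/well in Opti-MEM with 2% FBS, pin-dosed and incubated 48 h at 37°C. Acumen cytometry (488 nm) gave the GFP/RFP total-intensity ratio.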

[1] = measured here: GFP splicing reporter channel
[2] = measured here: RFP viability control channel

Structure (SMILES)	AC50 [1]	AC50 [2]
CCOc1ccc2nc(NC(=O)CN3CCC(n4nnc5cc(F)ccc54)CC3)sc2c1	11.2 µM [rising, single point]	14.1 µM [rising, single point]
CCOC(=O)N1CCN(C(=O)c2ccccc2N(Cc2ccccc2)S(=O)(=O)c2ccc(OC)cc2)CC1	8.91 µM [falling, partial curve, poor fit]	25.1 µM [falling, single point]
NC(=S)N/N=C/c1ccccc1OCCSc1ccc(Cl)cc1	3.55 µM [falling, partial curve, poor fit]	0.282 µM [falling, partial curve, poor fit]
CCOC(=O)c1scc(-c2ccccc2)c1S(=O)(=O)N1CCN(c2ccccc2OC)CC1	–	3.98 µM [rising, full curve]
CC(=O)c1cccc(NS(=O)(=O)c2ccc(N/C=C/C(=O)c3ccc(F)cc3)cc2)c1	–	5.01 µM [rising, partial curve]
O=C(Nc1sc2c(c1C(=O)O)CCCCC2)c1ccco1	14.1 µM [rising, single point]	31.6 µM [rising, single point]
CCOC(=O)c1cc(-c2ccccc2)n(CCC(=O)Nc2nc3c(C)cccc3s2)c1C	0.02 µM [falling, full curve, poor fit]	0.02 µM [falling, full curve, poor fit]
CCN(CC)CCn1c(=N)n(CCOc2ccccc2)c2ccccc21	12.6 µM [rising, partial curve]	20 µM [rising, single point]
Cc1ccccc1NS(=O)(=O)c1ccc2[nH]c3c(c2c1)CCCCC3	22.4 µM [falling, partial curve, poor fit]	35.5 µM [falling, partial curve]
Cc1ccc(C(=O)Nc2ccc(O)cc2C(=O)O)cc1C	11.2 µM [falling, partial curve, poor fit]	0.158 µM [falling, full curve]
CCc1ccc(-n2c(=O)c3c(C)c(C(=O)N(C)C)sc3n(Cc3ccccc3F)c2=O)cc1	–	35.5 µM [falling, single point]
CCC(=NCc1ccc(Cl)c(Cl)c1)c1nc(-c2ccco2)oc1O	20 µM [rising, single point]	25.1 µM [rising, single point]
CC(C)OC(=O)CSc1nnc2n1C(C)(C)Cc1ccccc1-2	–	12.6 µM [rising, single point]
CCN1CCN(c2cc(-c3ccccc3)nc3cc(-c4cccc(F)c4)nn23)CC1	–	25.1 µM [rising, single point]
Cn1ncc2c(Nc3ccc(-c4ccccc4)cc3)ncnc21	14.1 µM [rising, single point]	20 µM [rising, single point]
COc1ccc2c(c1)[nH]c1c(=O)n(Cc3ccco3)cnc12	14.1 µM [rising, partial curve, poor fit]	12.6 µM [rising, partial curve, poor fit]
Cc1cnc(=O)[nH]c1SCC(=O)Nc1nc2ccccc2s1	–	35.5 µM [rising, single point]
CCN(CC)c1ccc(/C=C2/SC(=O)N(C(C)C)C2=O)o1	35.5 µM [rising, single point]	–
COc1cc(NC(=O)c2cccc(C)c2)c(OC)cc1NC(=O)CN1CCCCC1	35.5 µM [rising, partial curve, poor fit]	20 µM [rising, partial curve, poor fit]
CCc1ccc(C(=O)NC(Cc2c[nH]c3ccccc23)C(=O)OCC(=O)c2ccc(Br)cc2)cc1 (stereo not given)	1.12 µM [falling, full curve, poor fit]	1.12 µM [falling, full curve, poor fit]
O=C(Nc1ccc2c(c1)CCC2)c1cccc(S(=O)(=O)Nc2ccccc2Cl)c1	–	6.31 µM [rising, partial curve]
O=c1[nH][nH]c(C(F)(F)F)c1/C=N/N1CCOCC1	–	0.141 µM [rising, full curve, poor fit]
Cc1ccc(-c2nnc(SCC(=O)NCc3ccccc3)nc2-c2ccc(C)cc2)cc1	–	2.82 µM [rising, single point]
Cn1c(=O)n(CCc2ccccc2)c(=O)c2c1nc1n2CCCN1Cc1ccccc1	–	11.2 µM [rising, partial curve, poor fit]
COc1ccccc1N1CCN(C(=O)c2cnc(N3CCCCC3)c3ccccc23)CC1	35.5 µM [falling, partial curve, poor fit]	–
O=C(O)c1ccc(COc2ccccc2/C=C2/NC(=O)N(c3cccc(Cl)c3)C2=O)cc1	7.08 µM [rising, partial curve]	–
CCn1cc(C(=O)N2CC(C)CC(C)C2)c(=O)c2cc(S(=O)(=O)N3CCOCC3)ccc21 (stereo not given)	–	3.55 µM [falling, single point]

Structure (SMILES)	AC50 [1]	AC50 [2]
Fc1cccc(Cl)c1Cn1nnc2c(N3CCC4(CC3)OCCO4)ncnc21	12.6 µM [rising, partial curve]	12.6 µM [rising, partial curve]
Cc1cc(C(=O)COc2ccccc2[N+](=O)[O-])c(C)n1-c1cccc(S(=O)(=O)N2CCOCC2)c1	3.55 µM [rising, full curve, poor fit]	3.55 µM [rising, full curve]
COc1ccc(OC)c(C2C(C#N)=C(N)Oc3c2c(C)nn3-c2cccc(Cl)c2)c1 (stereo not given)	5.62 µM [rising, partial curve]	14.1 µM [rising, single point]
COc1ccc(CCNc2ccc(S(=O)(=O)N3CCCC3)cc2[N+](=O)[O-])cc1	31.6 µM [rising, single point]	35.5 µM [rising, single point]
CCCCn1c(NC(=O)c2ccccc2)c(C#N)c2nc3ccccc3nc21	–	31.6 µM [rising, single point]
c1ccc(-n2nc3c(ccc4cnnc43)[nH]2)cc1	–	0.178 µM [rising, full curve, poor fit]
COc1ccc(C2OC(=O)Cc3cc(OC)c(OC)cc32)cc1 (stereo not given)	–	1.26 µM [falling, partial curve]
Cc1cc(/C=N/n2cnnc2)c(C)n1-c1cccc(Cl)c1	14.1 µM [rising, partial curve, poor fit]	20 µM [rising, single point]
COc1ccccc1N1CCN(Cc2ccc(OC)c3ccccc23)CC1	–	25.1 µM [rising, single point]
Cc1ccc(Cl)cc1N1CCN(C(=O)CCCCCn2c(=O)[nH]c3ccccc3c2=O)CC1	22.4 µM [falling, single point]	17.8 µM [falling, single point]
COc1ccc(N2CCc3c(C)nc4c(OC)cc(OC)cc4c32)cc1	–	14.1 µM [rising, partial curve, poor fit]
O=c1c2ccccc2[nH]c(=S)n1CCC1=CCCCC1	–	6.31 µM [rising, full curve, poor fit]
c1ccc(-c2nn3c(-c4ccccc4)nnc3s2)cc1	–	4.47 µM [rising, single point]
Cc1ccc(C(=O)COc2ccccc2-c2ccccc2)cc1	–	31.6 µM [rising, single point]
C[n+]1ccc(/C=C/c2ccc(Br)cc2)cc1	39.8 µM [falling, partial curve, poor fit]	–
O=[N+]([O-])c1cc(-c2nnc(Nc3ccc(O)cc3)c3ccccc23)ccc1N1CCOCC1	–	35.5 µM [rising, single point]
CN(Cc1ccccc1)c1ccc2nnc(-c3ccccc3)n2n1	–	5.01 µM [rising, partial curve]
O=C(CCc1ccccc1)Nc1nnc(-c2ccc3c(c2)CCCC3)o1	–	35.5 µM [rising, single point]
CC(=O)c1cccc(NC(=O)C(C)n2c(=O)cc(-c3ccccc3)c3c(C)nn(C)c32)c1 (stereo not given)	–	12.6 µM [falling, partial curve, poor fit]
C=C(C)CNC(=S)N/N=C(\C)c1ccc(OC)cc1	–	10 µM [rising, partial curve, poor fit]
NS(=O)(=O)c1ccc(N/N=C/c2cn(-c3ccccc3)nc2-c2ccccc2)c([N+](=O)[O-])c1	7.94 µM [falling, partial curve, poor fit]	7.08 µM [falling, full curve, poor fit]
Cc1ccc(OCc2nnc(SCc3cc(=O)[nH]c4ccccc34)o2)cc1	–	35.5 µM [rising, single point]
COC(=O)N/N=C/c1cn(CC(C)COc2ccccc2)c2ccccc12 (stereo not given)	12.6 µM [rising, partial curve, poor fit]	35.5 µM [rising, partial curve]
Cc1nc2ccc(S(=O)(=O)NCC(=O)N3CCN(c4ccccn4)CC3)cc2s1	–	31.6 µM [rising, single point]
N#Cc1sc2nc(N3CCCCC3)c3c(c2c1N)CCCC3	17.8 µM [falling, single point]	35.5 µM [falling, single point]
O=C(Nc1cccc(C(=O)OCc2cc(=O)n3c4c(sc3n2)CCCC4)c1)c1cccc(Cl)c1	0.178 µM [falling, full curve]	–

Taken from above (3 entries):
Structure (SMILES)	AC50 [1]	AC50 [2]
Cc1cc(/C=N/n2cnnc2)c(C)n1-c1cccc(Cl)c1	14.1 µM [rising, partial curve, poor fit]	20 µM [rising, single point]
COc1ccccc1N1CCN(Cc2ccc(OC)c3ccccc23)CC1	–	25.1 µM [rising, single point]
Cc1ccc(Cl)cc1N1CCN(C(=O)CCCCCn2c(=O)[nH]c3ccccc3c2=O)CC1	22.4 µM [falling, single point]	17.8 µM [falling, single point]
